Reference: patent EP0402415B1, “SYNTHETIC SCM-ACTIVE CANCER RECOGNITION PEPTIDES” (CERCEK, Boris, priority 1988, dated 1993)
At least one peptide structure holds a part that was inferred or is arguable (an end, a ring closure or a residue). Where no end group is shown, it is not given here.

Test system: lymphocytes from donors with malignant disease
Assay: SCM (structuredness of cytoplasmic matrix) test, fluorescence polarization of challenged lymphocytes
Format: cell-based, human
Conditions: for response in the SCM test: challenge of lymphocytes from cancer patients / donors with malignant disease, a response is a decrease in P value

Substance	response in the SCM test	response in the SCM test (listed as Beckman EAE peptide further purified by anion-exchange chromatography)	response in the SCM test (listed as purer EAE)	SCM response (lymphocytes from donors with several of these types of malignancies)
FWGAGQR [Peptide I, Phe-Trp-Gly-Ala-Gly-Gln-Arg]	showed SCM activity	–	–	–
FWGAEGQR [Peptide II, Phe-Trp-Gly-Ala-Glu-Gly-Gln-Arg]	showed SCM activity	–	–	–
FSWGAEGQR [purified EAE, Phe-Ser-Trp-Gly-Ala-Glu-Gly-Gln-Arg]	no SCM activity	did not produce the expected response	failed to produce the expected response	no response
